Some of the results follow. These are further read-outs of the screen, such as a control signal, another cell line or another target. No call is given for them. Compounds called inactive in the main read-out are mostly missing here. Potencies come from curve fits of mixed quality, noted in brackets.
Test: qHTS Assay to Find Inhibitors of Chronic Active B-Cell Receptor Signaling
Conditions: ABC-DLBCL IkBa-CBG/CBR reporter, luminescence ratio (green luciferase fused to IkBa over red control in TMD8 lymphoma cells), 4 h
Outline: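 TMD8 ABC-DLBCL cells carrying doxycycline-inducible green luciferase fused to IkappaBalpha plus unfused red luciferase were exposed to compounds (up to 46 uM) for 4 hrs at 37C. Activity came from the overlap-corrected green/red luminescence ratio.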

[1] = measured here: CBR red luminescence, cell number
[2] = measured here: IkBa-CBG green luminescence

SMILES	AC50 [1]	AC50 [2]
c1ccc(-c2cc(-c3ccccc3)n3ncnc3n2)cc1	10 µM [falling, partial curve, poor fit]	–
COC(OC)c1nc(SCC(=O)Nc2cccc(Cl)c2)ncc1C(=O)O	35.5 µM [falling, single point]	–
COCC(=O)Nc1nc2n(n1)C(c1ccc(OC)cc1)CC(c1ccc(OC)cc1)N2 (stereo not drawn)	23.1 µM [falling, single point]	–
CC(C)=CCC/C(C)=C/CNC(=O)C[C@H]1C[C@H](C(=O)N2CCCCC2)[C@@]2(C)c3[nH]c4ccc(Cl)cc4c3CCN2C1=O	6.51 µM [rising, partial curve, poor fit]	20.6 µM [falling, single point]
Cc1ccc(NC(=O)C2COc3ccccc3O2)nc1 (stereo not drawn)	0.461 µM [rising, full curve]	–
CCOC(=O)C1CCCN(C(=O)/C=C/c2ccccc2[N+](=O)[O-])C1 (stereo not drawn)	6.51 µM [falling, single point]	–
CC(=O)Nc1cccc(C(=O)/C=C/c2ccc(F)cc2)c1	10 µM [falling, partial curve]	–
O=C1c2cccc3cccc(c23)C(=O)N1c1ccccc1Cl	–	8.91 µM [falling, partial curve, poor fit]
Cc1nc(N(C)Cc2ccccc2)c2c(C)c(C)sc2n1	20 µM [rising, partial curve, poor fit]	–
CNC(=S)N/N=C(\C)c1ccc2c(c1)OCO2	–	35.5 µM [falling, single point]
CCO[C@@H]1OC(C(=O)NCc2ccccc2)=C[C@H](C(C)(C)C)[C@H]1CCCO	5.62 µM [rising, single point]	–
O=C1C=C(Nc2ccccc2C(=O)O)c2ccccc2C1=O	17.8 µM [falling, single point]	–
O=Cc1cccc(OCc2cccc3ccccc23)c1	22.4 µM [rising, partial curve, poor fit]	35.5 µM [falling, single point]
Cc1ccc(NC(=O)CC2SCCNC2=O)cc1Cl (stereo not drawn)	14.6 µM [rising, partial curve, poor fit]	–
CCOc1ccccc1NC(=O)Nc1cccc(NC(C)=O)c1	3.16 µM [falling, partial curve]	–
O=c1c2cc([N+](=O)[O-])cc([N+](=O)[O-])c2[nH]n1-c1ccccc1	7.08 µM [falling, partial curve, poor fit]	–
COc1ccc(CNC(=O)C(=O)c2cn(CC(=O)N3CCOCC3)c3ccccc23)cc1	7.94 µM [falling, partial curve]	–
Cc1cccc(OCCCC(=O)Nc2ccc(N(C)C)cc2)c1	9.2 µM [rising, partial curve, poor fit]	–
CCN(C(=O)CN1C(=O)S/C(=C\c2cccc(Cl)c2)C1=O)C1CCS(=O)(=O)C1 (stereo not drawn)	31.6 µM [falling, partial curve, poor fit]	–
O=C(COc1ccc2c3c(c(=O)oc2c1)CCC3)Nc1ccccn1	11.2 µM [rising, partial curve, poor fit]	–

A few values from the entries so far:
Value of O=C1c2cccc3cccc(c23)C(=O)N1c1ccccc1Cl under AC50 [2]: 8.91 µM [falling, partial curve, poor fit]
Value of CCO[C@@H]1OC(C(=O)NCc2ccccc2)=C[C@H](C(C)(C)C)[C@H]1CCCO under AC50 [1]: 5.62 µM [rising, single point]
Value of COc1ccc(CNC(=O)C(=O)c2cn(CC(=O)N3CCOCC3)c3ccccc23)cc1 under AC50 [1]: 7.94 µM [falling, partial curve]

Going on with the list:

SMILES	AC50 [1]	AC50 [2]
CCc1ccc(OCC(=O)NC(NC(=S)Nc2ccc(C)cc2C)C(Cl)(Cl)Cl)cc1 (stereo not drawn)	35.5 µM [falling, single point]	–
O=C1C=C(c2cc3ccccc3s2)C[C@@H](c2ccc(F)cc2)C1	8.2 µM [rising, partial curve]	–
Cc1ccc(-c2oc3ncnc(N)c3c2-c2ccc(C)cc2)cc1	3.26 µM [falling, partial curve, poor fit]	6.51 µM [falling, partial curve, poor fit]
Nc1ccc(C(=O)Nc2nc3ccccc3s2)cc1	2.91 µM [falling, full curve]	–
Cc1ccccc1OCC(=O)N(Cc1cccc(F)c1)C1CCS(=O)(=O)C1 (stereo not drawn)	7.94 µM [falling, partial curve, poor fit]	–
CNc1nc(SCc2ccccc2)nc(N2CCOCC2)n1	7.31 µM [falling, partial curve]	–
COc1cccc(-c2cc(=O)c3cc(NC(=O)c4ccc(N(C)C)cc4)ccc3[nH]2)c1	1.64 µM [rising, full curve]	1.64 µM [falling, full curve]
S=c1[nH]nc(Cc2sc(-c3ccccc3)nc2-c2ccccc2)o1	–	16.4 µM [rising, partial curve, poor fit]
COc1ccccc1C(c1nnnn1CS(=O)(=O)c1ccc(C)cc1)N1CCSCC1 (stereo not drawn)	22.4 µM [falling, single point]	–
O=C(Nc1cccnc1)Nc1ccc(F)c(Cl)c1	6.51 µM [rising, single point]	–
COc1ccc2nc(N3C(=O)CC(Cc4ccc(Cl)cc4)C3=O)sc2c1 (stereo not drawn)	14.1 µM [falling, partial curve]	–
Cc1ccc([C@@H]2CC=C(C(=O)O)[C@H](c3cccc(Cl)c3)N2S(=O)(=O)c2ccccc2C)cc1	29.1 µM [falling, partial curve, poor fit]	–
CN(c1ccccc1)S(=O)(=O)c1cccc(NC(=O)CCNC(=O)c2ccc([N+](=O)[O-])cc2)c1	1.64 µM [rising, partial curve]	–
CCCCC(=O)Nc1cccc(NC(=O)C(C)C)c1	29.1 µM [rising, single point]	–
CCOc1ccc(S(=O)(=O)N(CCO)CCO)cc1-c1nc2c(C(C)(C)C)nn(C)c2c(=O)[nH]1	11.6 µM [rising, single point]	–
Cc1cc(N2CCOCC2)nc(SCc2c(Cl)cccc2Cl)n1	–	20.6 µM [falling, partial curve, poor fit]
COc1ccccc1/C=C/C1=NC(=C\N(C)C)/C(=O)O1	0.00461 µM [falling, full curve, poor fit]	–
COc1ccc([C@@H]2C[C@@H](c3ccccc3)Oc3cc(OC)cc(OC)c32)cc1	1 µM [rising, full curve]	–
O=C1C(C=Nc2ccccc2)=C(O)c2ccccc21	1.64 µM [falling, full curve]	–

Source: PubChem BioAssay AID493014 (National Center for Advancing Translational Sciences (NCATS), 2011)
